Part of at least one peptide drawing is inferred or uncertain, most often the ends. Bridge positions count the residues as written; N and C are the ends. Square brackets hold non-standard residues; d marks the D form. Peptide text beside a SMILES is read from it. hSer = N[C@@H](CCO)C(=O)O
Test system: Wister male rat
Test: Measurement of biological activity: serum calcium concentration in rats after intravenous administration, 2-2 parallel dose method against an eel calcitonin standard
Format: in vivo
Conditions: for Specific activity: Wister male rat, jugular vein administration, serum calcium at 1 hour, OCPC method, eel calcitonin standard

| Structure (SMILES) | Specific activity [IU/mg] | biological activity compared with native type eel calcitonin (comparison of Table 1 specific activities) |
| --- | --- | --- |
| CC(C)C[C@H](NC(=O)[C@H](CCCCN)NC(=O)CNC(=O)[C@H](CC(C)C)NC(=O)[C@@H](NC(=O)[C@@H]1CSSC[C@H](N)C(=O)N[C@@H](CO)C(=O)N[C@@H](CC(N)=O)C(=O)N[C@@H](CC(C)C)C(=O)N[C@@H](CO)C(=O)N[C@@H]([C@@H](C)O)C(=O)N1)C(C)C)C(=O)N[C@@H](CO)C(=O)N[C@@H](CCC(N)=O)C(=O)N[C@@H](CCC(=O)O)C(=O)N[C@@H](CC(C)C)C(=O)N[C@@H](Cc1c[nH]cn1)C(=O)N[C@@H](CCCCN)C(=O)N[C@@H](CC(C)C)C(=O)N[C@@H](CCC(N)=O)C(=O)N[C@H](C(=O)N[C@@H](Cc1ccc(O)cc1)C(=O)N1CCC[C@H]1C(=O)N[C@@H](CCCNC(=N)N)C(=O)N[C@H](C(=O)N[C@@H](CC(=O)O)C(=O)N[C@H](C(=O)NCC(=O)N[C@@H](C)C(=O)NCC(=O)N[C@H](C(=O)N1CCC[C@H]1C(N)=O)[C@@H](C)O)C(C)C)[C@@H](C)O)[C@@H](C)O [Reference Example, native type eel calcitonin] (H-CSNLSTCVLGKLSQELHKLQTYPRTDVGAGTP-NH2; disulfide 1-7) | 4500 |  |
| CC(C)C[C@H](NC(=O)[C@H](CCCCN)NC(=O)CNC(=O)[C@H](CC(C)C)NC(=O)[C@@H](NC(=O)[C@@H]1CSSC[C@H](N)C(=O)N[C@@H](CO)C(=O)N[C@@H](CC(N)=O)C(=O)N[C@@H](CC(C)C)C(=O)N[C@@H](CO)C(=O)N[C@@H]([C@@H](C)O)C(=O)N1)C(C)C)C(=O)N[C@@H](CO)C(=O)N[C@@H](CCC(N)=O)C(=O)N[C@@H](CCC(=O)O)C(=O)N[C@@H](CC(C)C)C(=O)N[C@@H](Cc1c[nH]cn1)C(=O)N[C@@H](CCCCN)C(=O)N[C@@H](CC(C)C)C(=O)N[C@@H](CCC(N)=O)C(=O)N[C@H](C(=O)N[C@@H](Cc1ccc(O)cc1)C(=O)N1CCC[C@H]1C(=O)N[C@@H](CCCNC(=N)N)C(=O)N[C@H](C(=O)N[C@@H](CC(=O)O)C(=O)N[C@H](C(=O)NCC(=O)N[C@@H](C)C(=O)NCC(=O)N[C@H](C(=O)N[C@@H](CCO)C(N)=O)[C@@H](C)O)C(C)C)[C@@H](C)O)[C@@H](C)O [Example, [Hse^32 -NH2]-eel calcitonin] (H-CSNLSTCVLGKLSQELHKLQTYPRTDVGAGT[hSer]-NH2; disulfide 1-7) | 6800 | remarkably higher than the native type eel calcitonin |

— US5536812A, “Calcitonin analogue and use thereof” (Sanwa Kagaku Kenkyusho Co., Ltd., priority 1994, dated 1996)
